The other results are listed elsewhere or left out. Small differences around the control level are noise.

By UniProt entry, the sequences of proteins in these tests, tags left out. Where a name states a change or a piece, a line headed by the entry shows the natural chain unless it says otherwise.
UniProt P30011: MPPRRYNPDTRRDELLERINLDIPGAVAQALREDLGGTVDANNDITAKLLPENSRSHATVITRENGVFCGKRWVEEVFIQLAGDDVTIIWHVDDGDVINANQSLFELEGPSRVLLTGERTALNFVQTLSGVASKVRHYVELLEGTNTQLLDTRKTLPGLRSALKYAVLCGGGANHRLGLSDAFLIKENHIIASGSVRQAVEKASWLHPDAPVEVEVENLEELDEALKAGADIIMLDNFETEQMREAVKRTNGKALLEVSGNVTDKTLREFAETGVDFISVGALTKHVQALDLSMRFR
UniProt P31131: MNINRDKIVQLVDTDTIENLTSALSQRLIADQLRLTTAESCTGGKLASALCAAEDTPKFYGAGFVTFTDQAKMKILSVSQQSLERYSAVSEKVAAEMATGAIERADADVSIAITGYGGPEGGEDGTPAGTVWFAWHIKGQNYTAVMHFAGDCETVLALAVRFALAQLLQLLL
UniProt P30843: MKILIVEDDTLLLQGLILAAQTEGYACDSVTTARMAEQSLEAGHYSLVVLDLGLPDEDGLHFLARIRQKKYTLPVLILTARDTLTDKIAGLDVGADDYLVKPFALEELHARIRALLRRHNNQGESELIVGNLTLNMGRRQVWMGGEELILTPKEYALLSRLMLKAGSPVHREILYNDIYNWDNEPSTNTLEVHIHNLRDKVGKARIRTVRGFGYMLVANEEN
UniProt P31460: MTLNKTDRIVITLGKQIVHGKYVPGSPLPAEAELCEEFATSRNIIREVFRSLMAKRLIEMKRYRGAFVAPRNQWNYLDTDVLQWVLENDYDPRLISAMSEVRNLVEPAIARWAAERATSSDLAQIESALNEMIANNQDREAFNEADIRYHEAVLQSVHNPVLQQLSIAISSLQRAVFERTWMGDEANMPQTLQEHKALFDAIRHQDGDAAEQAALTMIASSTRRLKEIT
UniProt P30855: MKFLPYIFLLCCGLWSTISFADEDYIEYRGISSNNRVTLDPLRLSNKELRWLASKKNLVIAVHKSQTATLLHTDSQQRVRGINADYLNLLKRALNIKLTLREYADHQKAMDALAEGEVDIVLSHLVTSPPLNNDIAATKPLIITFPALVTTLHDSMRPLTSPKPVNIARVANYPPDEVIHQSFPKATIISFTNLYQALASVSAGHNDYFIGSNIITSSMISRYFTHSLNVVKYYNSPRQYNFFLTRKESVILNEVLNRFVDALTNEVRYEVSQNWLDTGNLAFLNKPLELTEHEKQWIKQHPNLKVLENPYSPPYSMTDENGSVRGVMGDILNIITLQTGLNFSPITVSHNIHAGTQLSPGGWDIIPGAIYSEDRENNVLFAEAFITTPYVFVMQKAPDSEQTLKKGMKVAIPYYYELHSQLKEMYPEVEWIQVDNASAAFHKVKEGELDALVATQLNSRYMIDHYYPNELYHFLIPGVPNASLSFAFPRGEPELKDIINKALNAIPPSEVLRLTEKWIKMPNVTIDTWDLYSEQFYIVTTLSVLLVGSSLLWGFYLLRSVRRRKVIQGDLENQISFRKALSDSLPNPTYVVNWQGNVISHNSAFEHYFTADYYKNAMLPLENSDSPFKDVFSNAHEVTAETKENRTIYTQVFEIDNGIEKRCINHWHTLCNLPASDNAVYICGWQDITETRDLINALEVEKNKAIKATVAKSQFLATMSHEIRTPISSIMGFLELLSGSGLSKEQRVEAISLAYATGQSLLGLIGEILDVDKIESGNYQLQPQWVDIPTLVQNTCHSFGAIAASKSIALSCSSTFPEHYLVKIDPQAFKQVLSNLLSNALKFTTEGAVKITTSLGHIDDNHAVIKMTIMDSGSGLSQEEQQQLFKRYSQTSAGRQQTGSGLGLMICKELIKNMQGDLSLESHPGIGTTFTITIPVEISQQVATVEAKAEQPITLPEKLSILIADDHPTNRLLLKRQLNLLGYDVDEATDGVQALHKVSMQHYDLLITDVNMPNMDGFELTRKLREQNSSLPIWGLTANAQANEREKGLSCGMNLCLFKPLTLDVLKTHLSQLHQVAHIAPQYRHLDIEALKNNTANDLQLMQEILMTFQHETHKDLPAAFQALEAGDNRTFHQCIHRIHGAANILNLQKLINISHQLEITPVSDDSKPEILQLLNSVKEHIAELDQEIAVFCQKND
UniProt P33224: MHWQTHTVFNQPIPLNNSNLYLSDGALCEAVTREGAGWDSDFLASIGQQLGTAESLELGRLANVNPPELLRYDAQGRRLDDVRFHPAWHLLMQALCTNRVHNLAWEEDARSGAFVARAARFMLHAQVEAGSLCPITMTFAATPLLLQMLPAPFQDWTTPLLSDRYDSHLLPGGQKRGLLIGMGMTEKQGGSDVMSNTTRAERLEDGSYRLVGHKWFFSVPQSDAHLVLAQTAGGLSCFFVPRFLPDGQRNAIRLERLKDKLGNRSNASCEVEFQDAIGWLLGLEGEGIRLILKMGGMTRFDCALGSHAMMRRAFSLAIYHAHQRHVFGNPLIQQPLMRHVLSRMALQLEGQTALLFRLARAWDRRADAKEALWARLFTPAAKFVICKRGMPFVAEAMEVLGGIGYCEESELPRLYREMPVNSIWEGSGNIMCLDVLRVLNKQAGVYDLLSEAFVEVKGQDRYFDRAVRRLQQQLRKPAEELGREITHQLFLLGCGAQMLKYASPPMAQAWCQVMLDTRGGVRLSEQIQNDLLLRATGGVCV
UniProt P33360: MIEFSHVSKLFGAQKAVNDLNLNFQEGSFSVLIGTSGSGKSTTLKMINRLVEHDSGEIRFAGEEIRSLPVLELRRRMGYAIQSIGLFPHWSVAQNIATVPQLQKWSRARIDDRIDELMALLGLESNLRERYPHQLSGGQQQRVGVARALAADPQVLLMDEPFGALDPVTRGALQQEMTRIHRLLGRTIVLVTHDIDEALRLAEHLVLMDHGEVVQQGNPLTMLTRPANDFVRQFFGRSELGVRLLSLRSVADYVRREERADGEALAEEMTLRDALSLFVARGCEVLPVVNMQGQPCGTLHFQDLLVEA
UniProt P25906: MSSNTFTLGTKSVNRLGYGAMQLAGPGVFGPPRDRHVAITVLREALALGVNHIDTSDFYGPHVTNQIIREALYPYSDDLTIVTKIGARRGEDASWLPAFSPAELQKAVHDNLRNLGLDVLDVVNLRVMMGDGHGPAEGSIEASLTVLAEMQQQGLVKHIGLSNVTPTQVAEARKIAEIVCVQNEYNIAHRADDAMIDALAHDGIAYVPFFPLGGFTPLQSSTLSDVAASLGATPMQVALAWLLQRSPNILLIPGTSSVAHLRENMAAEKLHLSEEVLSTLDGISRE
UniProt P25748: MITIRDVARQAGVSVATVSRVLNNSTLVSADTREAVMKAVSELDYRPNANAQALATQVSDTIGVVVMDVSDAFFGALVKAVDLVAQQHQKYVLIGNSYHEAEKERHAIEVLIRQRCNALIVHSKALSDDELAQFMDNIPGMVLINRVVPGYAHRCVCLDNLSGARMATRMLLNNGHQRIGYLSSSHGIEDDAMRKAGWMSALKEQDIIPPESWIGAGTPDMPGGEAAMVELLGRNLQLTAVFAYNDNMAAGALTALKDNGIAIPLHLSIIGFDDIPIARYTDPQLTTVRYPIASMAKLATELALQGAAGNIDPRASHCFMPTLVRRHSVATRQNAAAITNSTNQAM
UniProt P31802: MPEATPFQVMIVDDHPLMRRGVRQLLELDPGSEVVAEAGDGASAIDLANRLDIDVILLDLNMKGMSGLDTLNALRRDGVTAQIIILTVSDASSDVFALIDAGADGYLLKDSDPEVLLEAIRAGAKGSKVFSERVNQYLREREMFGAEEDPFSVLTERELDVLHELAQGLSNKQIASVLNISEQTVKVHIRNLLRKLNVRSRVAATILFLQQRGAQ
UniProt P27253: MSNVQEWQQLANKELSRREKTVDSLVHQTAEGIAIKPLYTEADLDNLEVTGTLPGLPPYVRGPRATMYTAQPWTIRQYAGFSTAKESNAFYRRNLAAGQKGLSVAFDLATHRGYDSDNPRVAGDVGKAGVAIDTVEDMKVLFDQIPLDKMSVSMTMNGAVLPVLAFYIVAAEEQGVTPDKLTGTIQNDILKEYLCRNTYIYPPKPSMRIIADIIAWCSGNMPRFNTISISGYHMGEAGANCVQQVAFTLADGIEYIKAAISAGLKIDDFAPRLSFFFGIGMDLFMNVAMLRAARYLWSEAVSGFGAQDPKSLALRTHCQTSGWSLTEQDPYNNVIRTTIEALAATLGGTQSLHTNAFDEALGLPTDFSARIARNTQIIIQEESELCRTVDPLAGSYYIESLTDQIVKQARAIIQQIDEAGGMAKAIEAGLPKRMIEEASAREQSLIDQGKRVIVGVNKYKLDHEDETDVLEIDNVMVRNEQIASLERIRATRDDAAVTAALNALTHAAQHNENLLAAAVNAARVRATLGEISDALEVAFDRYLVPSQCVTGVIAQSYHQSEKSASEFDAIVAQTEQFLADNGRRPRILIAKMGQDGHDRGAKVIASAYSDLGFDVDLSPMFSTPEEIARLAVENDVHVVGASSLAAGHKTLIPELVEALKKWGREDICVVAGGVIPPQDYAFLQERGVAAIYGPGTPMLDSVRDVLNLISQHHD

Compound in this assay: CC1(C)S[C@@H]2[C@H](NC(=O)[C@H](N)c3ccccc3)C(=O)N2[C@H]1C(=O)O [ampicillin]
The experiment in a line: log2 fold change of tryptic peptide abundance, ligand vs vehicle (limited proteolysis) (log2 ratio); higher = more trypsin-susceptible (destabilized). The settings on record: ligand concentration: 10 uM; sample: E. coli crude lysate.
Regarding “UniProt P30011 (peptide sequence: ENHIIASGSVR, peptide start residue: 187)”, the log2 fold change was 0.12.

Regarding “UniProt P31131 (peptide sequence: LASALCAAEDTPK, peptide start residue: 46)”, the log2 fold change was -0.511.

As to “UniProt P30843 (peptide sequence: IAGLDVGADDYLVKPFALEELHAR, peptide start residue: 88)”, the log2 fold change was 0.105.

“UniProt P31460 (peptide sequence: NLVEPAIAR, peptide start residue: 103)”: the log2 fold change stood at 0.0765.

As for “UniProt P30855 (peptide sequence: ITTSLGHIDDNHAVIK, peptide start residue: 851)”, the log2 fold change came to 0.914.

As to “UniProt P33224 (peptide sequence: HVFGNPLIQQPLMR, peptide start residue: 325)”, the log2 fold change came out at 0.4.

As to “UniProt P33360 (peptide sequence: TIVLVTHDIDEALR, peptide start residue: 187)”, the log2 fold change is 0.201.

Take “UniProt P25906 (peptide sequence: SPNILLIPGTSSVAHLR, peptide start residue: 246)”: the log2 fold change is -0.173.

Turning to “UniProt P25748 (peptide sequence: MLLNNGHQR, peptide start residue: 170)”, the log2 fold change came to 0.243.

For “UniProt P31802 (peptide sequence: GSKVFSER, peptide start residue: 126)”, the log2 fold change was -0.455.

Take “UniProt P27253 (peptide sequence: NEQIASLER, peptide start residue: 479)”: the log2 fold change is -0.496.
